This is one part of the list.
Compound: Cc1cc(ccc1-c1ccccc1)C(=O)N1CCCN(CC1)C(=O)CCl [compound 10]
Assay: probe-labelled cysteine peptide fold change vs DMSO (competition) (log2 fold change); higher = less target engagement (more negative = stronger competition)
Conditions: THP-1, incubation time: 4 h
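Further: competitive profiling in live THP-1 cells: cysteine peptides tagged with an iodoacetamide desthiobiotin (IA-DTB) probe, intensity after compound treatment relative to DMSO-treated cells.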

The chains behind the UniProt entries cited, without tags or fusion partners. Where a name states a change or a piece, a line headed by the entry shows the natural chain unless it says otherwise.
UniProt O43491, whole entry, looked up: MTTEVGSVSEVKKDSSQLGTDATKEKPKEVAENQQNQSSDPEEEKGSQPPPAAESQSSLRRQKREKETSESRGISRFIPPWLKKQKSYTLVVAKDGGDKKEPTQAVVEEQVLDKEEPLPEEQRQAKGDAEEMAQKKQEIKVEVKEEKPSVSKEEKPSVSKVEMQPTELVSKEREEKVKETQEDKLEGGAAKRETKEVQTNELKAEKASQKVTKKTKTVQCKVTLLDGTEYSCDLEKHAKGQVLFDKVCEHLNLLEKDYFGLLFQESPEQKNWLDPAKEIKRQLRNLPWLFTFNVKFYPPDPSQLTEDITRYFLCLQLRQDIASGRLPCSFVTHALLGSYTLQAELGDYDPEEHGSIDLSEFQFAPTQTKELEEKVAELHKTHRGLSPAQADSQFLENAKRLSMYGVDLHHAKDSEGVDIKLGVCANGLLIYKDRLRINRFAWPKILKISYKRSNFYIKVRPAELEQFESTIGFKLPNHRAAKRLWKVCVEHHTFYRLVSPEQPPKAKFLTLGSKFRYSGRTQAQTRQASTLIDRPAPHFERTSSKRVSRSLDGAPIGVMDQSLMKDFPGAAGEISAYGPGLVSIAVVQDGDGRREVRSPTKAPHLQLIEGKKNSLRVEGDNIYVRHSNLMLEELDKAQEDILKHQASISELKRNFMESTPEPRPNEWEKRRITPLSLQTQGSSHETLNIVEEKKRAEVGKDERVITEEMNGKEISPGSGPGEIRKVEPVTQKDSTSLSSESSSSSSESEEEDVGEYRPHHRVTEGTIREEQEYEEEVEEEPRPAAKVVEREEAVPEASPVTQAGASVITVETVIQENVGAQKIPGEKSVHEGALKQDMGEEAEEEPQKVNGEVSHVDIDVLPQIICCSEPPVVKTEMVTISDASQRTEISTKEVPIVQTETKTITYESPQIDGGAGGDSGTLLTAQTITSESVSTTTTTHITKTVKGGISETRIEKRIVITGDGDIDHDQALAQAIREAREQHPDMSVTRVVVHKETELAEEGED
UniProt P07814: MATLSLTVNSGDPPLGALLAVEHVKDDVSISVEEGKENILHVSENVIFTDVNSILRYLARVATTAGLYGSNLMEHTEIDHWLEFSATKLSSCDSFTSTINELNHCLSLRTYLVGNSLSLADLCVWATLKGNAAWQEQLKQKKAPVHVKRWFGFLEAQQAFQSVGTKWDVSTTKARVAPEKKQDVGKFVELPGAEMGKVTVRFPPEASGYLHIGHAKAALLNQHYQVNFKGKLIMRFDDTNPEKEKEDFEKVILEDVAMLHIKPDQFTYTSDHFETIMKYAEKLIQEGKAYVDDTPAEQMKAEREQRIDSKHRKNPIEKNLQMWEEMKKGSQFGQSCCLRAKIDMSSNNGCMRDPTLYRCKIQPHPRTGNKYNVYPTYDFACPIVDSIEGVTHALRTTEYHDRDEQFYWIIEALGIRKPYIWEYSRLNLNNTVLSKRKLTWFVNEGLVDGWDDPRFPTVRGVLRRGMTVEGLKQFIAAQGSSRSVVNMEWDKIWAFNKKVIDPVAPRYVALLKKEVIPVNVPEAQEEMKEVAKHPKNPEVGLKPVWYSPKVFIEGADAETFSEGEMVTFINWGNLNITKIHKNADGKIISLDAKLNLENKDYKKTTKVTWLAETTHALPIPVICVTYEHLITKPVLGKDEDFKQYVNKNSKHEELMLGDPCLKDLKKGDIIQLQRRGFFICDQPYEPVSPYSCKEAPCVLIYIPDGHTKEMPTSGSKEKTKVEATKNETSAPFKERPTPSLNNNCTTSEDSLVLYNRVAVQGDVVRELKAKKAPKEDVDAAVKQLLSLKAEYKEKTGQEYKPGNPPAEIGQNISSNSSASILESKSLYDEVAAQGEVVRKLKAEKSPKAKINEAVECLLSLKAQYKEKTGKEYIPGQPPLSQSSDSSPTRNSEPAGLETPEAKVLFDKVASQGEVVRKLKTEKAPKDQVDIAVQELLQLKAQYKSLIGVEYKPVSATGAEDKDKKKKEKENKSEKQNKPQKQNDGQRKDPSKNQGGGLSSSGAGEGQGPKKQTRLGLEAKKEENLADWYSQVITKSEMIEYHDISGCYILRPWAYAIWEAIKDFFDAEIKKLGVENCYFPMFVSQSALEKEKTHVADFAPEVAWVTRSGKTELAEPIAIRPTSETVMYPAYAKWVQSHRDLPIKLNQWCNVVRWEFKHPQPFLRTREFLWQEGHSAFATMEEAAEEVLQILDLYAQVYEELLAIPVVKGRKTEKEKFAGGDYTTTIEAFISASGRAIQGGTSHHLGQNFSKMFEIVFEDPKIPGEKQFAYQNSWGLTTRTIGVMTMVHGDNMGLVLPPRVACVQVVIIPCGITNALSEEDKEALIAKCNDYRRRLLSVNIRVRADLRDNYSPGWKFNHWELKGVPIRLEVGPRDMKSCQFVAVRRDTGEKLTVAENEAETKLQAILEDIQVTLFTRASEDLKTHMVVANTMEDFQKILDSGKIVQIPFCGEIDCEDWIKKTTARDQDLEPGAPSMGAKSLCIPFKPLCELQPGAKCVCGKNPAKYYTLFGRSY
UniProt Q9NZ08: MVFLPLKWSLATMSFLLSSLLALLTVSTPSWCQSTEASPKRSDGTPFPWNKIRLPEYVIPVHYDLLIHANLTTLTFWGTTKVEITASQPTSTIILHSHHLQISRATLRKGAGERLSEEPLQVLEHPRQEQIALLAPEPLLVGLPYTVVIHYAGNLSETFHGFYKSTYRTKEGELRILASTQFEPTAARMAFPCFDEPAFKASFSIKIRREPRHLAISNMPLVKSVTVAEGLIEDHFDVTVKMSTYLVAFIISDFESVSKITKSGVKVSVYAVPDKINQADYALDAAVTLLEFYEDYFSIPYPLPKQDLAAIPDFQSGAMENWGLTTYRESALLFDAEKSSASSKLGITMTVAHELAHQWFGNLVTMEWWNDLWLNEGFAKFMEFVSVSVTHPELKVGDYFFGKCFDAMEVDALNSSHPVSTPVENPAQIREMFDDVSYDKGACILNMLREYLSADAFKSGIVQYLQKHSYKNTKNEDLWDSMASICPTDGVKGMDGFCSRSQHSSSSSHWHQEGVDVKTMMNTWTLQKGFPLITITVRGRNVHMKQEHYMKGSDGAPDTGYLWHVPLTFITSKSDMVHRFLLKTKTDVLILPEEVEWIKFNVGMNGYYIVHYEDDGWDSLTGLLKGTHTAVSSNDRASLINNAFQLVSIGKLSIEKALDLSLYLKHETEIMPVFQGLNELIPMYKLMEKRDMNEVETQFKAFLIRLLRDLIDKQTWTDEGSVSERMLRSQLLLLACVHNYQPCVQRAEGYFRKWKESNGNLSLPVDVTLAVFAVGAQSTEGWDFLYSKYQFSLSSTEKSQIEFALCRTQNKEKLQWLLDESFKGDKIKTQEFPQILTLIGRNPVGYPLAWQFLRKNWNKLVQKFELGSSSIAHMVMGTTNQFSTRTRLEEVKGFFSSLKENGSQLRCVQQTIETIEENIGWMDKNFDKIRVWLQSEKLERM
UniProt Q6PCB8: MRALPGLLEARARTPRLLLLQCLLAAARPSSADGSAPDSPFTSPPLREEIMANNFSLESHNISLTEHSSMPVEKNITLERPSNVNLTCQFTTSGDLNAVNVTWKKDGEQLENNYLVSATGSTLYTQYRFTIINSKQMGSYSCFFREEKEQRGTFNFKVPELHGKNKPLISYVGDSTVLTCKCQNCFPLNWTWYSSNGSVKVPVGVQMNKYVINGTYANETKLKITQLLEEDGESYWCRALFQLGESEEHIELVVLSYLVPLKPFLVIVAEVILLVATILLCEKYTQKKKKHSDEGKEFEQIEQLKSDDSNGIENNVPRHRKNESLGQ
UniProt Q9BQ52: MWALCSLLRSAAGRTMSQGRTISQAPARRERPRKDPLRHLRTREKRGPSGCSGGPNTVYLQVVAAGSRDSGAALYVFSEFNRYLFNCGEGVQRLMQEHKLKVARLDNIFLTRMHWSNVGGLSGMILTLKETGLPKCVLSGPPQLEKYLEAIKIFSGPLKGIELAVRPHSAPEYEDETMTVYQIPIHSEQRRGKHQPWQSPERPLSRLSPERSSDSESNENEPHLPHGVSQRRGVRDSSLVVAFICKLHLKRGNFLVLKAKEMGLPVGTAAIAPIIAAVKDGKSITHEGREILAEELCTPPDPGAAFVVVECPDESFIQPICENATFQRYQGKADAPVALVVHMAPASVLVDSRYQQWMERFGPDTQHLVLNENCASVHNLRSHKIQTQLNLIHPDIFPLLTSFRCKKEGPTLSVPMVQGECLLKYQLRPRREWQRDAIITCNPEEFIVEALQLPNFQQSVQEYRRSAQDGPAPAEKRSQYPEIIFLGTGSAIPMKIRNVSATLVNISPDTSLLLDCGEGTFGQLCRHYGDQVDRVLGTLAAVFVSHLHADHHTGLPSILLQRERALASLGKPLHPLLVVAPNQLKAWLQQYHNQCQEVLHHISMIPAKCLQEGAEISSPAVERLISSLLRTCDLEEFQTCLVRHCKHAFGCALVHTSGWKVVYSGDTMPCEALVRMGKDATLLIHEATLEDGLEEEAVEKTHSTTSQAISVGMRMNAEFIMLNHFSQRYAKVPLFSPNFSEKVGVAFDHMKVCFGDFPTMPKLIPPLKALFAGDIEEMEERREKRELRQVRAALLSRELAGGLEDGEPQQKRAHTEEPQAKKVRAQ
UniProt Q9UM22: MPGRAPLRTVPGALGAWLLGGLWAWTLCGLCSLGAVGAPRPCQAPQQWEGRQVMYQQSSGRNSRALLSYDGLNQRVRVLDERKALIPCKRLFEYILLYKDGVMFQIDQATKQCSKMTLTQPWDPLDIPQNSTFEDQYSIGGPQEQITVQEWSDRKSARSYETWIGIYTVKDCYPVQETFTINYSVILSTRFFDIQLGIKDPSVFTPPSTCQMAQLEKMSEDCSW
UniProt Q04637, whole entry, looked up: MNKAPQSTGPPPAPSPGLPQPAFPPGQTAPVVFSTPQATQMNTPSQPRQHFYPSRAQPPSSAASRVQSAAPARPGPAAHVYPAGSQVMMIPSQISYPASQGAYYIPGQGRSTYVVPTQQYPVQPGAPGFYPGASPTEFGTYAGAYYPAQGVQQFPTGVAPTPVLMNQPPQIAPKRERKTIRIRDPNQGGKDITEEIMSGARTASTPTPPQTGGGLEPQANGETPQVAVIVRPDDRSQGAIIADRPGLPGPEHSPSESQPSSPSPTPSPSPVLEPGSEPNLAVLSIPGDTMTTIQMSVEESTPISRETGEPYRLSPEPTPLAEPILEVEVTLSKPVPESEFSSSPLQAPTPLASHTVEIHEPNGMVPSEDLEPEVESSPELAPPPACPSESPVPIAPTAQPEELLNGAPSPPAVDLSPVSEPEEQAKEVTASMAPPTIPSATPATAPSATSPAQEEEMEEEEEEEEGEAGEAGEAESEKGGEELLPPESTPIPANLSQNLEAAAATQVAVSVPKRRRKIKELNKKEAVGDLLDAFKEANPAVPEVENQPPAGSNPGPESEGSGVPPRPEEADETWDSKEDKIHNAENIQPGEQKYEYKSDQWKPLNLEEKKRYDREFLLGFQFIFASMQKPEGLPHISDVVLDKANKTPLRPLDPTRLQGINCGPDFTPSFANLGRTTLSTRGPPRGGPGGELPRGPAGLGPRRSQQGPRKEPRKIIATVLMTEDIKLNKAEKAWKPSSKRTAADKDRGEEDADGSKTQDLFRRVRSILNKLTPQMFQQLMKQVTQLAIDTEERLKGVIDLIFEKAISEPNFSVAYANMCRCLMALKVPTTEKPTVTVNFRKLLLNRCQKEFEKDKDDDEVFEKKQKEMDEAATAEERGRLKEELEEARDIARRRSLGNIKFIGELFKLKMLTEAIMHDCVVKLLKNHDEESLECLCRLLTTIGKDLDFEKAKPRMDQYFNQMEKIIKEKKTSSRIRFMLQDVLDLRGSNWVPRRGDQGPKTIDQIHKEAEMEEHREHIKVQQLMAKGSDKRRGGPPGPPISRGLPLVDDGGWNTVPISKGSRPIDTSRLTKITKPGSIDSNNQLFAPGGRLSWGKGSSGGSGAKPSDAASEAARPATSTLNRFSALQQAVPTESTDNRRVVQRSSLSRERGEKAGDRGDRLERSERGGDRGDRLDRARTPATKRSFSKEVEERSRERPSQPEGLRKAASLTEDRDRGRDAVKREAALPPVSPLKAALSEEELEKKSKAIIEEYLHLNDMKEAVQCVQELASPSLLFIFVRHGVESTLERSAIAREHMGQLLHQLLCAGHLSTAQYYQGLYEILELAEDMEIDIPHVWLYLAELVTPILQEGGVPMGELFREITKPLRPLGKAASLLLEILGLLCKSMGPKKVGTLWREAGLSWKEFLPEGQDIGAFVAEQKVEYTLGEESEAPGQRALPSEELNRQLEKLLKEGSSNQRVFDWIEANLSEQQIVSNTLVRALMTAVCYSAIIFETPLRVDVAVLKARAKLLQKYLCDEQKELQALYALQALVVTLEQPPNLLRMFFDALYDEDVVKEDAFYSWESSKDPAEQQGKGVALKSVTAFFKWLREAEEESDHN

Target	probe-labelled cysteine peptide fold change (10 µM)	probe-labelled cysteine peptide fold change (50 µM)
EPB41L2_O43491_232_VTLLDGTEYSCDLEK (UniProt O43491)	-0.0561	-0.0992
EPRS_P07814_1076_KLGVENCYFPMFVSQSALEK (UniProt P07814)	0.288	0.373
EPHX2_P34913_522_GHIEDCGHWTQMDKPTEVNQILIK (UniProt P34913)	-0.114	-0.26
EMC1_Q8N766_587_TTAHFPHPPQCTLLVK (UniProt Q8N766)	0.14	-0.00966
ELP1_O95163_836_YCLSILTSHVK (UniProt O95163)	-0.0463	-0.249
ELMO1_Q92556_663_HEYCIWTDGLNALLGK (UniProt Q92556)	0.442	0.711
EIF3E_P60228_345_LFIFETFCR (UniProt P60228)	0.417	0.527
EPB41L2_O43491_248_VCEHLNLLEK (UniProt O43491)	0.164	0.142
EML2_O95834_301_ITQAVLGAHDGGVFGLCALR (UniProt O95834)	-0.0221	0.0215
EIF4B_P23588_457_SLENETLNKEEDCHSPTSKPPKPDQPLK (UniProt P23588)	0.0656	-0.575
EPRS_P07814_660_NSKHEELMLGDPCLK (UniProt P07814)	-0.334	-1.37
EIF4G2_P78344_97_LCLELLNVGVESK (UniProt P78344)	-0.41	0.409
ENOX2_Q16206_216_DDLYEWECK (UniProt Q16206)	0.0581	-0.237
ERBIN_Q96RT1_464_AQVAFECDEDKDER (UniProt Q96RT1)	-0.178	-0.00478
EIF4ENIF1_Q9NRA8_767_SSCSTPLSQANR (UniProt Q9NRA8)	-0.12	-0.5
EIF3D_O15371_404_HCNGVDWR (UniProt O15371)	-0.0253	-0.103
ERAP1_Q9NZ08_907_CVQQTIETIEENIGWMDK (UniProt Q9NZ08)	0.00799	0.0662
EMC8_O43402_136_FTMDCVAPTIHVYEHHENR (UniProt O43402)	-0.0825	0.0294
ERCC4_Q92889_176_AFTDNAVAFDTGFCHVER (UniProt Q92889)	-0.0669	-0.0927
ENOSF1_Q7L5Y1_67_GTEVVVCAVNALAHHVLNK (UniProt Q7L5Y1)	0.0208	-0.191
EIF4A1_P60842_134_VVMALGDYMGASCHACIGGTNVR (UniProt P60842)	0.122	0.172
ELANE_P08246_208_QAGVCFGDSGSPLVCNGLIHGIASFVR (UniProt P08246)	-0.0984	-0.486

Target	probe-labelled cysteine peptide fold change (10 µM)	probe-labelled cysteine peptide fold change (50 µM)
EMC2_Q15006_192_AAFCLEELMMTNPHNHLYCQQYAEVK (UniProt Q15006)	0.0886	0.0397
EPRS_P07814_1301+1309_VACVQVVIIPCGITNALSEEDK (UniProt P07814)	0.0144	0.011
ERCC2_P18074_663_HAAQCVGR (UniProt P18074)	-0.0224	-0.122
EIF5_P55010_122_QTIGNSCK (UniProt P55010)	0.156	-0.22
ENAH_Q8N8S7_62_KIQDHQVVINCAIPK (UniProt Q8N8S7)	-0.0964	-0.196
EPC1_Q9H2F5_135_KMDICPLQFEEMIDRLEK (UniProt Q9H2F5)	0.203	-0.458
ELAC1_Q9H777_130_TMELSHTELVFHYVVHELVPTADQCPAEELK (UniProt Q9H777)	-0.11	0.115
EIF5B_O60841_749_CPFIVALNK (UniProt O60841)	0.0355	0.299
EPS15_P42566_269_TGLPSTLLAHIWSLCDTK (UniProt P42566)	0.224	-0.137
EMB_Q6PCB8_142_QMGSYSCFFR (UniProt Q6PCB8)	-0.126	0.0847
ELAC2_Q9BQ52_245_DSSLVVAFICK (UniProt Q9BQ52)	-0.161	0.432
EML3_Q32P44_604_GDLAQGFSPVIQGHTDELWGLCTHPSQNR (UniProt Q32P44)	0.0915	-0.0284
EPRS_P07814_1453_IVQIPFCGEIDCEDWIKK (UniProt P07814)	0.0129	-0.913
EOGT_Q5NDL2_61_HIATVCR (UniProt Q5NDL2)	0.181	0.124
EPC2_Q52LR7_626_AQGSSTSDCMSK (UniProt Q52LR7)	-0.169	-0.264
EMC4_Q5J8M3_69_CWDIALGPLK (UniProt Q5J8M3)	0.0223	0.385
EPDR1_Q9UM22_88_ALIPCK (UniProt Q9UM22)	-0.283	0.208
EPRS_P07814_336+337_GSQFGQSCCLR (UniProt P07814)	-0.163	-0.608
EP300_Q09472_1247_RKNDTLDPELFVECTECGR (UniProt Q09472)	-0.109	-0.00924
EIF4G1_Q04637_1487_ALMTAVCYSAIIFETPLR (UniProt Q04637)	0.455	0.632
EMB_Q6PCB8_180_NKPLISYVGDSTVLTCK (UniProt Q6PCB8)	-0.0607	0.0622

Single entries from the results shown:
Value for EMB_Q6PCB8_142_QMGSYSCFFR (UniProt Q6PCB8) under probe-labelled cysteine peptide fold change (10 µM): -0.126
Value for ERAP1_Q9NZ08_907_CVQQTIETIEENIGWMDK (UniProt Q9NZ08) under probe-labelled cysteine peptide fold change (10 µM): 0.00799
